MtTrpRS: 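Tryptophan-tRNA ligase, Mycobacterium tuberculosis (UniProt P9WFT3). Enzyme assay of tryptophanyl-tRNA synthetase; the read-out is not stated. Tested at 10 µM. Direction is not recorded; retested compounds ran higher, which suggests that high means inhibition. Of about 65,000 compounds tested this way, about 64 (0.098%) reached 50% or more in at least one test.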
Pks13 thioesterase: 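Polyketide synthase Pks13, Mycobacterium tuberculosis (UniProt I6X8D2). Enzyme assay of the thioesterase domain of polyketide synthase 13; the read-out is not stated. Compounds at 30 µM. The record gives no direction; the compounds picked for IC50 retests had high values, so higher reads as stronger inhibition. Of about 67,000 compounds tested this way, about 300 (0.46%) reached 50% or more in at least one test.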
LiHisRS: 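Histidine-tRNA ligase, Leishmania infantum (UniProt A4I591). Enzyme assay of histidyl-tRNA synthetase; the read-out is not stated. Compounds at 30 µM. Direction is inferred from retests: higher values go with stronger inhibition. The assay is labelled LdHisRS but filed under L. infantum. Size under these conditions: about 69,000 compounds, about 410 of them at 50% or above in at least one test.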
TcHisRS: 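Enzyme assay of histidyl-tRNA synthetase; the read-out is not stated. Target: Histidine-tRNA ligase, Trypanosoma cruzi CL Brener (UniProt Q4DA54). Concentration: 30 µM. The record gives no direction; compounds that gave an IC50 in retests scored well above the rest, so higher reads as stronger inhibition. About 69,000 compounds were tested under these conditions; 0.045% (about 31) showed 50% or more at least once.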

Protein sequences, listed by entry. Tags and fused reporters are not part of them. Residues count along the entry.
UniProt P9WFT3, whole entry: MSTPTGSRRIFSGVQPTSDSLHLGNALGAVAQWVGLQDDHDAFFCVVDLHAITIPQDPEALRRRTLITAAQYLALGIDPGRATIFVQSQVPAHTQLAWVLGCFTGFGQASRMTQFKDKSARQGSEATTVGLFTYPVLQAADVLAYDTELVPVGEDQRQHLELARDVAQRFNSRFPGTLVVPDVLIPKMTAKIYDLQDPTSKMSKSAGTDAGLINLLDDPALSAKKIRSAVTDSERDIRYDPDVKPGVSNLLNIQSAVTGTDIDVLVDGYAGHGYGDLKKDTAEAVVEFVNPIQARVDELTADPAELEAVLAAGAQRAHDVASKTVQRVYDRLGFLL
UniProt I6X8D2, whole entry: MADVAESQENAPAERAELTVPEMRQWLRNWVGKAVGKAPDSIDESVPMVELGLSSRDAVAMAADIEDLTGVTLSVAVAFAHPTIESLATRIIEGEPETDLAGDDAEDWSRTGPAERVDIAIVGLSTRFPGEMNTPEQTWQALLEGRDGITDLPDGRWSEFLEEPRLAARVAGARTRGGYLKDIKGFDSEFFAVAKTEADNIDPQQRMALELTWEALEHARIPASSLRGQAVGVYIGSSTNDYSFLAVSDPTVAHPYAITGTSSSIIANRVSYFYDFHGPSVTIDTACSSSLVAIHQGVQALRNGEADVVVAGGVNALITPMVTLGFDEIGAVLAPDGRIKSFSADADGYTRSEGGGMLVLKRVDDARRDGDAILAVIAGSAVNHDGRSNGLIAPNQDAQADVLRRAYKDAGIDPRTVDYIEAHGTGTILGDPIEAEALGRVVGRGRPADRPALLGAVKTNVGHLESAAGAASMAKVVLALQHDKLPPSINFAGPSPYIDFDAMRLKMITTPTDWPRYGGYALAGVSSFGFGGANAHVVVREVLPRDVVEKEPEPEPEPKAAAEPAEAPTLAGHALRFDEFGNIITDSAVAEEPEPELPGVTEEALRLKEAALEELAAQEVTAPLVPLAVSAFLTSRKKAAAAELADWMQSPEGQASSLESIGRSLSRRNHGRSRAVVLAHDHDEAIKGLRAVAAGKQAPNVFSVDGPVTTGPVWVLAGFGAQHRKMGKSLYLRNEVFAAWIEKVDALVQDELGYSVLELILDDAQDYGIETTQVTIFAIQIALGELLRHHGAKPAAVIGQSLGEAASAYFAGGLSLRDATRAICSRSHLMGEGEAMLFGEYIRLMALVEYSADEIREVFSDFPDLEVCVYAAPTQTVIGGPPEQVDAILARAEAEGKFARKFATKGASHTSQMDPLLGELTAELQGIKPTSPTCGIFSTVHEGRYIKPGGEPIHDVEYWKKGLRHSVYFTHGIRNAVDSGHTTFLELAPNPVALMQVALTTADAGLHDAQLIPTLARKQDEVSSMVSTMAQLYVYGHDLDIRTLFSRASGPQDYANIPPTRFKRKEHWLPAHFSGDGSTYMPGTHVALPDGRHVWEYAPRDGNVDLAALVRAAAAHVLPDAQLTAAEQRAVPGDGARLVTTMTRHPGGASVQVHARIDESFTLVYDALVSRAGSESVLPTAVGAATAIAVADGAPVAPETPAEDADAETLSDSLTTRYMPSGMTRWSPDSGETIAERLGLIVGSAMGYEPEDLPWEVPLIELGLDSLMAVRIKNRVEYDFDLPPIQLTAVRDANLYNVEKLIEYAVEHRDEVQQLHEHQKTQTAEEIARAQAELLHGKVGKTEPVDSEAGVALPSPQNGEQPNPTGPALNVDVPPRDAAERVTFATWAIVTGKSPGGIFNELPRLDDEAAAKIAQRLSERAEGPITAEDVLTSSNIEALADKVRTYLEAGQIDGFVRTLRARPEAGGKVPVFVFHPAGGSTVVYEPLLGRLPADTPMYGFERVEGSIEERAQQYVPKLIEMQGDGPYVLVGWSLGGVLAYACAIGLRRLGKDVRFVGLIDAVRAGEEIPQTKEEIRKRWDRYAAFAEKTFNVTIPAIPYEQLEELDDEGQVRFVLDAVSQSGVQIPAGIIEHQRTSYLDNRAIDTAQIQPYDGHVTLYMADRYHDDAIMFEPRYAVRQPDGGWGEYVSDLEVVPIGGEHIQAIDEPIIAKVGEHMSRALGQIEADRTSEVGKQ
UniProt A4I591, 1-473: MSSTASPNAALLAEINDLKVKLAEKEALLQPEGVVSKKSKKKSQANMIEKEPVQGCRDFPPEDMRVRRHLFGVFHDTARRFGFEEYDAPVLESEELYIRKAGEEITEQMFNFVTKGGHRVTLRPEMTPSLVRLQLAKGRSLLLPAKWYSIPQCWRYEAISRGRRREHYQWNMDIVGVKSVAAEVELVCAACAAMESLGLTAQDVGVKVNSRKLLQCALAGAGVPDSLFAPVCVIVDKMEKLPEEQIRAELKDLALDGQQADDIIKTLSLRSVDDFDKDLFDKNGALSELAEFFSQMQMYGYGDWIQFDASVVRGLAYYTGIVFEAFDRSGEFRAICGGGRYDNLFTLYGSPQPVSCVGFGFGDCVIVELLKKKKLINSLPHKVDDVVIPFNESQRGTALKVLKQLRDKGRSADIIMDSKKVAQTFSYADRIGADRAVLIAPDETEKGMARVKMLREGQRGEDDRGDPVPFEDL
UniProt Q4DA54, 1-478: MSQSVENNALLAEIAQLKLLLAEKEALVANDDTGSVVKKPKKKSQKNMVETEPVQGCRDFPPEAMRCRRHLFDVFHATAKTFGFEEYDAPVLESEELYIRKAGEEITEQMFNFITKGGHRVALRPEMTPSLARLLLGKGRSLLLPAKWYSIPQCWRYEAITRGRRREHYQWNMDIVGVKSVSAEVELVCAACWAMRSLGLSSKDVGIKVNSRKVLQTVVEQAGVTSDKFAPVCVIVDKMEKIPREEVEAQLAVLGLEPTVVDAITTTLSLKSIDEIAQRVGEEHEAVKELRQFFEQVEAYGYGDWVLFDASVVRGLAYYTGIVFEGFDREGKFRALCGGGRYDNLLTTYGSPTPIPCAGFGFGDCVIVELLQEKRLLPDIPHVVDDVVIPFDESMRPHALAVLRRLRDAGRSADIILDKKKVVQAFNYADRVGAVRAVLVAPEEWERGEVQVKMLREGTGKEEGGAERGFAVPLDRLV

The filed quantity is “Percent Effect” (%).
The record does not define 0% and 100%; most values in the screen are far below 50% and negative numbers occur (in some assays of this library far below -100).
Compounds were drawn at random from those tested, without regard to their results.
A dash means the value is not listed here; it may have been measured.

{"compound": "NC(=O)C1CCN(c2nc3nccc(-c4ccccn4)c3c(=O)[nH]2)CC1", "MtTrpRS": 4.979, "Pks13 thioesterase": -17.33, "LiHisRS": 20, "TcHisRS": 1.087}
{"compound": "O=C(c1cc[nH]n1)N1CCCC1C1CCN(Cc2ccccc2)CC1", "stereo": "stereo not shown", "MtTrpRS": -3.072, "Pks13 thioesterase": -33.05, "LiHisRS": -5.714, "TcHisRS": 6.522}
{"compound": "CN(C)c1ccc(NC(=O)N2CCCCCC2c2ccncc2)cn1", "stereo": "stereo not shown", "MtTrpRS": 0.7802, "Pks13 thioesterase": 1.984, "LiHisRS": 8.219, "TcHisRS": 3.175}
{"compound": "O=c1oc(-c2ccc(F)cc2)nn1CN1CCN(CC2CC2)CC1", "MtTrpRS": 0.1947, "Pks13 thioesterase": -9.136, "LiHisRS": 15.65, "TcHisRS": 4.598}
{"compound": "Cc1nn(CCn2ccnc2-c2cc3n(n2)CCCNC3)c(C)c1Cl", "MtTrpRS": 2.842, "Pks13 thioesterase": -29.98, "LiHisRS": 22.33, "TcHisRS": 2.075}
{"compound": "COc1cc(C(=O)NCc2cc(N3CCOCC3)ncn2)ccn1", "MtTrpRS": 1.941, "Pks13 thioesterase": 7.258, "LiHisRS": 20.83, "TcHisRS": 3.797}
{"compound": "COc1cc(S(=O)(=O)N2C[C@@H](C)[C@@](C)(O)C2)c(C)cc1C", "MtTrpRS": -1.475, "Pks13 thioesterase": -22.03, "LiHisRS": -2.857, "TcHisRS": 9.278}
{"compound": "CCNC(=O)CNC(=O)Nc1cccc(Cl)c1SC(F)F", "MtTrpRS": -6.085, "Pks13 thioesterase": 17.77, "LiHisRS": 6.849, "TcHisRS": 7.882}
{"compound": "c1ccc(C(CC2CN(Cc3c[nH]cn3)CCO2)c2ccccc2)cc1", "stereo": "stereo not shown", "MtTrpRS": 2.976, "Pks13 thioesterase": -23.85, "LiHisRS": 12.59, "TcHisRS": 14.43}
{"compound": "CC(C)(C)NC(=O)CCOc1cccc(F)c1", "MtTrpRS": 0.52, "Pks13 thioesterase": -19.86, "LiHisRS": 9.174, "TcHisRS": 3.529}
{"compound": "CCOc1ncccc1CNC(=O)c1cccc(C)n1", "MtTrpRS": -1.07, "Pks13 thioesterase": -33.02, "LiHisRS": 17.59, "TcHisRS": 3.812}
{"compound": "CC(Nc1cccc2c1OCCO2)C(=O)NC(N)=O", "stereo": "stereo not shown", "MtTrpRS": -5.191, "Pks13 thioesterase": -21, "LiHisRS": 20.35, "TcHisRS": 3.097}
{"compound": "O=C(NC1CC1)C1CN(c2nc3ccccc3s2)CCN1", "stereo": "stereo not shown", "MtTrpRS": -4.47, "Pks13 thioesterase": -27.68, "LiHisRS": 18.42, "TcHisRS": 2.793}
{"compound": "CC(NC(=O)CCc1ccsc1)c1ccc2c(c1)NC(=O)CO2", "stereo": "stereo not shown", "MtTrpRS": -3.829, "Pks13 thioesterase": 0.1122, "LiHisRS": 10.71, "TcHisRS": 8.284}
{"compound": "COc1ccccc1C(NC(=O)C1CCCC1)c1noc(C)n1", "stereo": "stereo not shown", "MtTrpRS": -3.269, "Pks13 thioesterase": -12.02, "LiHisRS": 15.79, "TcHisRS": 7.563}
{"compound": "CC(C)c1noc(CNC2CCCN(Cc3noc(C4CC4)n3)C2)n1", "stereo": "stereo not shown", "MtTrpRS": 7.899, "Pks13 thioesterase": 22.86, "LiHisRS": 8.163, "TcHisRS": 5.128}
{"compound": "Cc1cc(CC(C)Nc2nc(-c3cccnc3)nc3c2CNC3)[nH]n1", "stereo": "stereo not shown", "MtTrpRS": 4.025, "Pks13 thioesterase": -39.39, "LiHisRS": 22.86, "TcHisRS": 2.597}
{"compound": "O=C(c1ccco1)N1C[C@H]2CCCN(C(=O)c3ccsc3)[C@H]2C1", "MtTrpRS": -5.578, "LiHisRS": 17.48, "TcHisRS": 3.883}
{"compound": "CC(=O)N1CCCC1c1cccc(Cc2ccccc2Cl)n1", "stereo": "stereo not shown", "Pks13 thioesterase": -8.456, "LiHisRS": 20.62, "TcHisRS": 3.333}
{"compound": "O=C(C[S+]([O-])C1CCCC1)NCCOc1cccc(Cl)c1", "stereo": "stereo not shown", "MtTrpRS": -2.182, "Pks13 thioesterase": -6.64, "LiHisRS": 5.051, "TcHisRS": 3.226}
{"compound": "Cc1nc(CC(C)C)sc1C(=O)N1CCC(C2(C)OCCO2)CC1", "MtTrpRS": -6.399, "Pks13 thioesterase": -10.16, "LiHisRS": 10.96, "TcHisRS": 5.263}
{"compound": "CC(C)NC(=O)N1Cc2nccn2CC(COc2cccnc2)C1", "stereo": "stereo not shown", "MtTrpRS": 12.85, "Pks13 thioesterase": -26.09, "LiHisRS": 9.722, "TcHisRS": -0.9524}
{"compound": "OCC1(CNC2CCc3cc4c(cc32)OCCO4)CC1", "stereo": "stereo not shown", "MtTrpRS": 0.9877, "Pks13 thioesterase": -12.53, "LiHisRS": 20, "TcHisRS": 7.143}
{"compound": "COCCCNC(=O)CN(C)C(=O)c1ccc(OC)cc1O", "MtTrpRS": 5.709, "Pks13 thioesterase": -10.16, "LiHisRS": 16.51, "TcHisRS": 8.455}
{"compound": "CN(Cc1cnn(C)c1)C(=O)C1COCC(=O)N1Cc1ccccc1", "stereo": "stereo not shown", "MtTrpRS": 0.9877, "Pks13 thioesterase": -29.11, "LiHisRS": 20, "TcHisRS": 14.29}
{"compound": "Cc1cc(NC(=O)N2CCOCC2)nn1-c1cccc(Cl)c1", "MtTrpRS": -0.5727, "Pks13 thioesterase": -16.86, "LiHisRS": 9.677, "TcHisRS": 4.167}
{"compound": "Cn1cnc2ccc(NC(=O)CC3CCN(C4CCCCC4)CC3)cc21", "MtTrpRS": -3.594, "Pks13 thioesterase": -6.363, "LiHisRS": 5.797, "TcHisRS": 2.273}
{"compound": "O=C(c1ccc[nH]1)N1CCn2cc(Cn3cccn3)nc2C1", "MtTrpRS": -6.099, "Pks13 thioesterase": 4.853, "LiHisRS": 8, "TcHisRS": 0.9804}
{"compound": "FC(F)(F)c1ccc2nc([C@H]3CCN(C4CCCCC4)C3)[nH]c2c1", "MtTrpRS": -4.593, "Pks13 thioesterase": -24.74, "LiHisRS": 16.67, "TcHisRS": 6.931}

Some entries from above, unchanged:

Compound,MtTrpRS,Pks13 thioesterase,LiHisRS,TcHisRS
CC(C)c1noc(CNC2CCCN(Cc3noc(C4CC4)n3)C2)n1 (stereo not shown),7.899,22.86,8.163,5.128
CC(=O)N1CCCC1c1cccc(Cc2ccccc2Cl)n1 (stereo not shown),-,-8.456,20.62,3.333
O=c1oc(-c2ccc(F)cc2)nn1CN1CCN(CC2CC2)CC1,0.1947,-9.136,15.65,4.598

The values are deposited in ChEMBL (CHEMBL3988442, “University of Dundee, Small-Polar-MMV Screening Library” (2021)).